One test addresses PRMT3, exogenous (UniProt O60678). The test can be described thus: co-IP; exogenously expressed proteins; cells lysed in RIPA buffer at 4°C, indicated antibodies overnight at 4°C, protein A/G agarose beads, western blot.
The next test deals with STIP1, exogenous (UniProt P31948). The description is as above.
The target in test [1] is protein arginine methyltransferase 3 (PRMT3), endogenous (human (endogenous in ESCC cells)) (UniProt O60678). In words: co-IP; endogenous proteins; cells lysed in RIPA buffer at 4°C, indicated antibodies overnight at 4°C, protein A/G agarose beads, four washes with RIPA, western blot; AHCY-LDHA also after STIP1 knockdown or overexpression.
Test [2] has as its target stress‐induced phosphoprotein 1 (STIP1), endogenous (human (endogenous in ESCC cell lines KYSE450, KYSE510)) (UniProt P31948). Described as above.

Chains of the proteins cited; added tags and fusions are not shown.
UniProt O60678: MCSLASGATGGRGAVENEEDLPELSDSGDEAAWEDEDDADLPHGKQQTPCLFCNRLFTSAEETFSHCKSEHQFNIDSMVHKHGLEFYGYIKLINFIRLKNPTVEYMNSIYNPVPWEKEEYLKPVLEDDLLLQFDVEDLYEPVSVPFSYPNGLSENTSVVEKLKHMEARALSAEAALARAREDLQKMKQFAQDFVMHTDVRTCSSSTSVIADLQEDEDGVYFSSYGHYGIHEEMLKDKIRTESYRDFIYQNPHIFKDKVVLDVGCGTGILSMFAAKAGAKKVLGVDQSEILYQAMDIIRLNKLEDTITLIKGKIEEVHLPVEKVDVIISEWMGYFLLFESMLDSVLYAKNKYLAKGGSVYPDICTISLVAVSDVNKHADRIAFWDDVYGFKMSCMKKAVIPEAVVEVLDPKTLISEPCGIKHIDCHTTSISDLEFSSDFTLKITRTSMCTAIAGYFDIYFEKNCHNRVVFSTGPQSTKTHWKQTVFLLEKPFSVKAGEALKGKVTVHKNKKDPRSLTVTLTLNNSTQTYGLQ
UniProt P23526: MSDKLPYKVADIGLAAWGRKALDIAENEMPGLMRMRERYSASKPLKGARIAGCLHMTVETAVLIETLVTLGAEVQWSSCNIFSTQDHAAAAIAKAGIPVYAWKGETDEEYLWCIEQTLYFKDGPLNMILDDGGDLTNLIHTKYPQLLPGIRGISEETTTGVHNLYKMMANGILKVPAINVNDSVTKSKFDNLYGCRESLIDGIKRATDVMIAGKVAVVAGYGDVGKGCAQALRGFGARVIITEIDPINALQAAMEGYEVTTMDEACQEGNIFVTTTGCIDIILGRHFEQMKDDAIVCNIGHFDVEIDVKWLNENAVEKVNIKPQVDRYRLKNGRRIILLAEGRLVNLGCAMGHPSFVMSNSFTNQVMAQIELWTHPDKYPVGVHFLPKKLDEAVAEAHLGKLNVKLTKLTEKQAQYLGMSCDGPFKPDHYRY

This is an account of results in article PMC12561186.

No constants are given. Whether binding was seen depends on the method and setting. In cells and extracts the contact can be indirect. Some binding calls cover weakened binding; strength is not graded here.

On to “AHCY, exogenous (from UniProt P23526 1-432) (enzyme)”, for which the binding result in the test with PRMT3, exogenous was “binds”; with STIP1, exogenous, “binds”.
On to “adenosylhomocysteinase (AHCY), endogenous (from UniProt P23526 1-432) (enzyme)”, for which the binding result in test [1] and in test [2] was “binds” in each case.
